In assay [1] the target is human PVRIG (Poliovirus Receptor Related Immunoglobulin Domain Containing Protein) (human) (UniProt Q6DKI7). The assay can be described thus: IHC on FFPE tumour tissue.
Assay [2] has the same target. The assay can be described thus: IHC on FFPE tumour tissue, antibody at 3 ug/ml.

The chains behind the UniProt entries cited, without tags or fusion partners. Where a name states a change or a piece, a line headed by the entry shows the natural chain unless it says otherwise.
UniProt Q6DKI7: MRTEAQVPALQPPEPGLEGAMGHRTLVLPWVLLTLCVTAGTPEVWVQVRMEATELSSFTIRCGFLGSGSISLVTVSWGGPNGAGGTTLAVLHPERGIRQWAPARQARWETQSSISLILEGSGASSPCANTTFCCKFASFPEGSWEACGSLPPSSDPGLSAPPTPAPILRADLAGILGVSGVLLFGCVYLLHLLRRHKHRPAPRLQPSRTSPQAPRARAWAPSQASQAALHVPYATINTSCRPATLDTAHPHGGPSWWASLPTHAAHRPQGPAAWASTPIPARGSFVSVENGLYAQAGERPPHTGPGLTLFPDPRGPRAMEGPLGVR

Results are given in words; binding and its absence hold for the method and conditions named. Some binding calls cover weakened binding; strength is not graded here.

B1: AB-635 PVRIG Ab (6D8-1 clone) (antibody, V domains shown)
VH: DVKFVESGGGLVKVGGSLKLSCAASGFTFSTYYMSWVRQTPEKRLELVAVINPTGGRTDFLDSVRGRFTISRDNAKNTLYLQMTSLKSEDTALYHCARRGELGRALDYWGQGTSVTVSS
VL: NIVLTQFPASLAVSLGQRASISCRASESVDSYGYSFIHWYQQKPGQPPKLLIYLASSLESGVPARFSGSGSRTDFTLTIDPVEANDAATYYCQQNNGDPWTFGGGTKLEIK
In the case of B1, the binding result in assay [1] and in assay [2] was “binds” throughout.

The values above are taken from patent US20230400467A1.
